These are yes or no findings as the source states them, for the method shown. In cells and extracts the contact can be indirect. Some binding calls cover weakened binding; strength is not graded here. For some of these results: Where a sequence is shown, tags or fusion partners need not be part of it.
Key:
[1] = target: T1, FLAG-tagged EphA8 (UniProt O09127); assay: co-IP; FLAG-tagged Eph receptor immunoprecipitated (anti-FLAG or anti-EphB2) from lysates of HEK293T cells co-transfected with HA-GluN1 and GluN2B; blot for HA or GluN1
T1 sequence: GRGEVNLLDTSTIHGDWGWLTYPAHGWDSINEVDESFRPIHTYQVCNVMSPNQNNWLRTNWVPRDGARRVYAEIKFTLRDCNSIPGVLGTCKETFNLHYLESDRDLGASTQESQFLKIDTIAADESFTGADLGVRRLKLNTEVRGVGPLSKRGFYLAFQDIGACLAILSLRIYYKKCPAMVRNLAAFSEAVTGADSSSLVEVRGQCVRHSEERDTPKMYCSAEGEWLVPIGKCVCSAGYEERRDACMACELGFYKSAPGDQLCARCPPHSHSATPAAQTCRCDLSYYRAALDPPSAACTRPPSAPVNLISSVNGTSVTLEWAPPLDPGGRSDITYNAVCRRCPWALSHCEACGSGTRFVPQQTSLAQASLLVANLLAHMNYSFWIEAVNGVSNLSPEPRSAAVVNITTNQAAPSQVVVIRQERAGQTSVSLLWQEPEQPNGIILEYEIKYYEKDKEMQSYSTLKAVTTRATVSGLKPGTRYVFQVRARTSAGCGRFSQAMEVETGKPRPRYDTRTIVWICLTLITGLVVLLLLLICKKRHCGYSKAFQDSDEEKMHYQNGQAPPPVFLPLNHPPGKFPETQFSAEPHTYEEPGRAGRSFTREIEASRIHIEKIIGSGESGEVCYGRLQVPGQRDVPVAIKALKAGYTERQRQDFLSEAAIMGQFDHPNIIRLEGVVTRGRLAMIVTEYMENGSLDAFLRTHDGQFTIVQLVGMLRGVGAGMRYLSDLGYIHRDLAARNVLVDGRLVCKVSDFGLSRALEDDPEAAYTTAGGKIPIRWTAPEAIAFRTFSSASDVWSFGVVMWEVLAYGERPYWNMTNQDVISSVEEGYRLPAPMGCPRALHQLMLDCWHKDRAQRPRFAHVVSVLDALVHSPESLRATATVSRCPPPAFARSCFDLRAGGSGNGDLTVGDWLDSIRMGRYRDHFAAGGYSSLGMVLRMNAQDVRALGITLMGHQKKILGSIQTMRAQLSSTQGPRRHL

Sequences of proteins named here, by UniProt entry; tags and fusion partners are left off. A change or cut given only in a name is not applied to a line headed by its entry. A line that says so, or that is headed by a name, gives the form on record, which may keep a tag or linker. Residues count along the entry.
FLAG-tagged EphB1 wild type (Q8CBF3, residues 18-984): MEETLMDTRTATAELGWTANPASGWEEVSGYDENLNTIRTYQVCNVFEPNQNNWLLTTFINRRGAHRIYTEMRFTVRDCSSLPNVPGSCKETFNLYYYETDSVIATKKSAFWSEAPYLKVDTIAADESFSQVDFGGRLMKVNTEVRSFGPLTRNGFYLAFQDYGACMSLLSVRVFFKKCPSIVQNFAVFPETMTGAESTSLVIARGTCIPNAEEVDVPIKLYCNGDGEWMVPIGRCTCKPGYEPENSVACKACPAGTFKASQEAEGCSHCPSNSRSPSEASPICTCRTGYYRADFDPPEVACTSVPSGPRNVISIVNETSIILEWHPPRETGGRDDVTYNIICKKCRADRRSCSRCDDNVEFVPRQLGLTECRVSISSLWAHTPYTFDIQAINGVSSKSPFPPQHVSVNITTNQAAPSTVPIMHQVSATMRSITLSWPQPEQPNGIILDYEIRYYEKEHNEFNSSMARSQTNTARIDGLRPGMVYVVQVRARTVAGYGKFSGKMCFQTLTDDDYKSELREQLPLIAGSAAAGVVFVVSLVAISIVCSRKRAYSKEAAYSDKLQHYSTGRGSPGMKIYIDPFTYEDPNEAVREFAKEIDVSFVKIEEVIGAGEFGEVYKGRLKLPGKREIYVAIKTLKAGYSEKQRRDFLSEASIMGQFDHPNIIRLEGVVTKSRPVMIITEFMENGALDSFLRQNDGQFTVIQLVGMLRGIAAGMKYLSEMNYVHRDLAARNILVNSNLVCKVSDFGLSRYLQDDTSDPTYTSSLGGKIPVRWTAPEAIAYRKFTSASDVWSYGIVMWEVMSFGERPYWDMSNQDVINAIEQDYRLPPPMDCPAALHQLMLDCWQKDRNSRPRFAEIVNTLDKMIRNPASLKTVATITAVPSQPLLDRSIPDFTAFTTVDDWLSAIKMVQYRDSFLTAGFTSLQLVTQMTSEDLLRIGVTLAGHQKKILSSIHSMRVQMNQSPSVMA
FLAG-tagged EphB1 Y502E (Q8CBF3, form named): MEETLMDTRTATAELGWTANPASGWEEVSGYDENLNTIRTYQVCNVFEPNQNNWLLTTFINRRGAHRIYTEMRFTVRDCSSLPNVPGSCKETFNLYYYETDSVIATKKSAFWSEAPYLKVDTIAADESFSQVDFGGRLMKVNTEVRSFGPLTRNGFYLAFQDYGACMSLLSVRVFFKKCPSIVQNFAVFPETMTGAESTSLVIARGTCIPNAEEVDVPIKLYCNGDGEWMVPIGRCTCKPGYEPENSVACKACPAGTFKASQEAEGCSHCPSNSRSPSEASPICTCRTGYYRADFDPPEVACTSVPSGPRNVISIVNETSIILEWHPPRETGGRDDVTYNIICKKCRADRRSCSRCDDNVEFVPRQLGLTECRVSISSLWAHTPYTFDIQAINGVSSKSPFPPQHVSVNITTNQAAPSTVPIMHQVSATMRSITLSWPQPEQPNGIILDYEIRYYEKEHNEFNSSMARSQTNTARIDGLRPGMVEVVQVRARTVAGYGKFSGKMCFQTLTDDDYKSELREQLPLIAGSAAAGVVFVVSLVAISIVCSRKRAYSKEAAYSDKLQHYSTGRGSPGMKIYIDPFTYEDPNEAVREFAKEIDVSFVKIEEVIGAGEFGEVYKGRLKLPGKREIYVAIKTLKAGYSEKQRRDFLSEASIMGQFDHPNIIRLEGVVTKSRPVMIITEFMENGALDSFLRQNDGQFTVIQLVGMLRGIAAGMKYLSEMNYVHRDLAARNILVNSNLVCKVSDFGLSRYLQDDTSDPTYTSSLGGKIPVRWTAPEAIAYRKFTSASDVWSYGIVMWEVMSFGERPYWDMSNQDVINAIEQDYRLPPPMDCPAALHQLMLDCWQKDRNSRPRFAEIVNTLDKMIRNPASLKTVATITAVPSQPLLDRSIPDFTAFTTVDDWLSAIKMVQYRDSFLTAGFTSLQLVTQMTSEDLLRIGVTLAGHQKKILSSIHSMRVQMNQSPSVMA
FLAG-tagged EphB1 Y502F (Q8CBF3, form named): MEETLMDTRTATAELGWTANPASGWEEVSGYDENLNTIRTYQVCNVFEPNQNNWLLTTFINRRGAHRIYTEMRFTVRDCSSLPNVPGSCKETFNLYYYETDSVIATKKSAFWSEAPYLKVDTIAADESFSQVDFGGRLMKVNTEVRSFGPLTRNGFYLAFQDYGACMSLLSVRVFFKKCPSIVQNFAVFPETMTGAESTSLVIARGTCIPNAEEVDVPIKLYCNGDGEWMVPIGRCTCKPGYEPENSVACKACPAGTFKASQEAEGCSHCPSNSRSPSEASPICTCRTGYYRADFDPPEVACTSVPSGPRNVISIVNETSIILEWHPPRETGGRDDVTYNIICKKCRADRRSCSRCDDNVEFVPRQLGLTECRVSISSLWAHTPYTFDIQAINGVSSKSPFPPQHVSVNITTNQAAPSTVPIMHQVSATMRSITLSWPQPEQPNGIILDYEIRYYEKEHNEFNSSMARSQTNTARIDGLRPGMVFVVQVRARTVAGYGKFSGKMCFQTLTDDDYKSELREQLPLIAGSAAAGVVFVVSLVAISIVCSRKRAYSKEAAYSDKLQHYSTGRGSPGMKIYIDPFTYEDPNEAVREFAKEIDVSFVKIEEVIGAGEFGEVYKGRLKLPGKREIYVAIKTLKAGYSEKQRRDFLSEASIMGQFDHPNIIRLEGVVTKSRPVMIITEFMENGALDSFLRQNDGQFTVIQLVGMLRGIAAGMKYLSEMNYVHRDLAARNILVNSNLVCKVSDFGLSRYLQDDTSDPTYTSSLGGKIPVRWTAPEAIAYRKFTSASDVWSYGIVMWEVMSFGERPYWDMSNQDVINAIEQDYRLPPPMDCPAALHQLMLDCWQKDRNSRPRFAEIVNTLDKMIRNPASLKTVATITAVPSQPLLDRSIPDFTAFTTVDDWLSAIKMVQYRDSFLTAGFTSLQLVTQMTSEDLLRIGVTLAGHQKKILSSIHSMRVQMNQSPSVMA

[2] = target: FLAG-tagged EphB1 Y502E (UniProt Q8CBF3); assay: as above
[3] = target: FLAG-tagged EphB1 Y502F (UniProt Q8CBF3); assay: as above
[4] = target: FLAG-tagged EphB1 wild type (UniProt Q8CBF3); assay: as above
[5] = target: GluN2B-containing NMDAR (HA-GluN1 co-expressed with GluN2B) (UniProt P35439); assay: co-IP; GluN1 immunoprecipitated with anti-GluN1 from lysates of HEK293T cells co-transfected with GluN1, GluN2B and a FLAG-tagged Eph receptor; blot for FLAG or EphB2

Substance | binding [1] | binding [2] | binding [3] | binding [4] | binding [5]
GluN2B-containing NMDAR (HA-GluN1 co-expressed with GluN2B) (from UniProt P35439 19-938; Q00960 27-1482) (complex) | binds | binds | binds | binds | –
FLAG-tagged EphB1 Y502F (from UniProt Q8CBF3 18-984) (receptor) | – | – | – | – | binds
FLAG-tagged EphB1 Y502E (from UniProt Q8CBF3 18-984) (receptor) | – | – | – | – | binds
FLAG-tagged EphB1 wild type (from UniProt Q8CBF3 18-984) (receptor) | – | – | – | – | binds
